Test results as given in US20100136660A1 (published 2010).
No constants are given. Whether binding was seen depends on the method and setting. Some results given as binding are weak or reduced against the parent protein; the word gives no strength.

Chains of the proteins cited; added tags and fusions are not shown. Residues count along the entry.
UniProt P00703, residues 19-147: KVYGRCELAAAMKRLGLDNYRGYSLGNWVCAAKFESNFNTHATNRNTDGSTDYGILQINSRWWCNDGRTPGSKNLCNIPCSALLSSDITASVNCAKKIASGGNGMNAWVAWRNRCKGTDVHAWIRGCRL

B1: human scFv VH13.1/VL13.1 (lysozyme binder from unimmunized library) (scFv, V domains shown)
VH: QVQLVQSGAEVKKPGQSLMISCQGSGYSFSNYWIGWVRQMPGKGLEWMGIIYPGDSDTRYSPSFQGQVTISADKSISTAYLHWSSLKASDTALYYCARLVGGTPAYWGQGT
VL: HVILTQPASVSGSPGQSITISCTGSSRDVGGYNYVSWYQHHPGKAPKLLISEVTNRPSGVSNRFSGSKSGNTASLTISGLQAEDEADYFCASYTSSKTYVFGG
notes: scFv on phage from pHEN1
B2: human scFv VH14.1/VL14.1 (lysozyme binder from unimmunized library) (scFv, V domains shown)
VH: QVQLQESGPGLVKPSETLSLVCTVSGGSLSFSYWGWIRQPPGKGLEWIGYISHRGTDYNSSLQSRVTISADTSKNQFSLKLSSVTAADTAVYYCARSFSNSFFFGYWGQGT
VL: SSELTQDPAVSVAFGQTVRITCQGDSLRSSYASWYQQKPGQAPLLVIYGENSRPSGIPDRFSGSSSGNTASLTITGAQAEDEADYYCNSRDSRGTHLEVFGG
notes: scFv on phage from pHEN1

Molecular target: turkey egg-white lysozyme (turkey) (UniProt P00703)
Assay: phage ELISA, 3 mg/ml turkey egg white lysozyme coating

Binder	binding
B1	binds
B2	binds
